The values that follow come from the supplement of paper PMC6411743.

Sequences of proteins named here, by UniProt entry; tags and fusion partners are left off. A change or cut given only in a name is not applied to a line headed by its entry.
UniProt O75695: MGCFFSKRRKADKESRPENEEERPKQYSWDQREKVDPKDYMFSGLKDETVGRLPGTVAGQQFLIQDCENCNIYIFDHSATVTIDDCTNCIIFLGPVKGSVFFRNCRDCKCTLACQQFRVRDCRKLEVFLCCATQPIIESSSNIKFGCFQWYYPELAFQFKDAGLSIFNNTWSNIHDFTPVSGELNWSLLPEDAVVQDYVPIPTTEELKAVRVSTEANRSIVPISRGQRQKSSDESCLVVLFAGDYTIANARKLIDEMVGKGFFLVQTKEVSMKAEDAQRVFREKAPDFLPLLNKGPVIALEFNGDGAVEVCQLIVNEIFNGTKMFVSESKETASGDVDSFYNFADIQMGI
UniProt O75223: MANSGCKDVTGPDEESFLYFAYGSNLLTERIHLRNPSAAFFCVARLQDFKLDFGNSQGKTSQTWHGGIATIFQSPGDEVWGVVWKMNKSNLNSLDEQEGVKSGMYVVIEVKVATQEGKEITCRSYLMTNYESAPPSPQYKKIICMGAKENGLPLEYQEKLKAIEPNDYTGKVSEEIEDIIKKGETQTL
UniProt O76031, whole entry: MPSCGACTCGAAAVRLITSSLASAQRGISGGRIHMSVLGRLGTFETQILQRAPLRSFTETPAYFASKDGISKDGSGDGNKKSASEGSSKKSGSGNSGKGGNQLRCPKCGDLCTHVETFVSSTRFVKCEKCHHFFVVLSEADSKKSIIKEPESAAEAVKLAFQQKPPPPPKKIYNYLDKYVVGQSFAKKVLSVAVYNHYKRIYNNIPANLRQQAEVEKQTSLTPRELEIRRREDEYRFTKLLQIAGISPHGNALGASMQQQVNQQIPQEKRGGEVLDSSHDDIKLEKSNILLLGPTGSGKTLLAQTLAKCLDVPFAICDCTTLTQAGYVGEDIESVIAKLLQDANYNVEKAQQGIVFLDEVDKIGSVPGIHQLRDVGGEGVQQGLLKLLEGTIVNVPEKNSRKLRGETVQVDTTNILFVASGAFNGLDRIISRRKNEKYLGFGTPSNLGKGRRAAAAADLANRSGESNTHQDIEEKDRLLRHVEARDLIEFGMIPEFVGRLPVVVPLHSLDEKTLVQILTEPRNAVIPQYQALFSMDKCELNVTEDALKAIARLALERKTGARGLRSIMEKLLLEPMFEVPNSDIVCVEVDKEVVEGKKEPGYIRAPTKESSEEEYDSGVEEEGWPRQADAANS
UniProt O75381, whole entry: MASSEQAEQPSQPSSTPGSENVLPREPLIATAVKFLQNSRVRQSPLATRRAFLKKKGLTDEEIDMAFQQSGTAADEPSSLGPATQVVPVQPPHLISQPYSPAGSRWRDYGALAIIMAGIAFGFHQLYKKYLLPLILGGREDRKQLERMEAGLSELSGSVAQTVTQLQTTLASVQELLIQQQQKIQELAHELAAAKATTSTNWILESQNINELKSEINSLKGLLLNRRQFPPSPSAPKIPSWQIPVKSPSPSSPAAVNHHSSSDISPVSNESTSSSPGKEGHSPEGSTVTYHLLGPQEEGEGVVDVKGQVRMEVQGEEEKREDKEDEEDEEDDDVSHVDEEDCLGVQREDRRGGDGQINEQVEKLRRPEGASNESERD
UniProt O96028: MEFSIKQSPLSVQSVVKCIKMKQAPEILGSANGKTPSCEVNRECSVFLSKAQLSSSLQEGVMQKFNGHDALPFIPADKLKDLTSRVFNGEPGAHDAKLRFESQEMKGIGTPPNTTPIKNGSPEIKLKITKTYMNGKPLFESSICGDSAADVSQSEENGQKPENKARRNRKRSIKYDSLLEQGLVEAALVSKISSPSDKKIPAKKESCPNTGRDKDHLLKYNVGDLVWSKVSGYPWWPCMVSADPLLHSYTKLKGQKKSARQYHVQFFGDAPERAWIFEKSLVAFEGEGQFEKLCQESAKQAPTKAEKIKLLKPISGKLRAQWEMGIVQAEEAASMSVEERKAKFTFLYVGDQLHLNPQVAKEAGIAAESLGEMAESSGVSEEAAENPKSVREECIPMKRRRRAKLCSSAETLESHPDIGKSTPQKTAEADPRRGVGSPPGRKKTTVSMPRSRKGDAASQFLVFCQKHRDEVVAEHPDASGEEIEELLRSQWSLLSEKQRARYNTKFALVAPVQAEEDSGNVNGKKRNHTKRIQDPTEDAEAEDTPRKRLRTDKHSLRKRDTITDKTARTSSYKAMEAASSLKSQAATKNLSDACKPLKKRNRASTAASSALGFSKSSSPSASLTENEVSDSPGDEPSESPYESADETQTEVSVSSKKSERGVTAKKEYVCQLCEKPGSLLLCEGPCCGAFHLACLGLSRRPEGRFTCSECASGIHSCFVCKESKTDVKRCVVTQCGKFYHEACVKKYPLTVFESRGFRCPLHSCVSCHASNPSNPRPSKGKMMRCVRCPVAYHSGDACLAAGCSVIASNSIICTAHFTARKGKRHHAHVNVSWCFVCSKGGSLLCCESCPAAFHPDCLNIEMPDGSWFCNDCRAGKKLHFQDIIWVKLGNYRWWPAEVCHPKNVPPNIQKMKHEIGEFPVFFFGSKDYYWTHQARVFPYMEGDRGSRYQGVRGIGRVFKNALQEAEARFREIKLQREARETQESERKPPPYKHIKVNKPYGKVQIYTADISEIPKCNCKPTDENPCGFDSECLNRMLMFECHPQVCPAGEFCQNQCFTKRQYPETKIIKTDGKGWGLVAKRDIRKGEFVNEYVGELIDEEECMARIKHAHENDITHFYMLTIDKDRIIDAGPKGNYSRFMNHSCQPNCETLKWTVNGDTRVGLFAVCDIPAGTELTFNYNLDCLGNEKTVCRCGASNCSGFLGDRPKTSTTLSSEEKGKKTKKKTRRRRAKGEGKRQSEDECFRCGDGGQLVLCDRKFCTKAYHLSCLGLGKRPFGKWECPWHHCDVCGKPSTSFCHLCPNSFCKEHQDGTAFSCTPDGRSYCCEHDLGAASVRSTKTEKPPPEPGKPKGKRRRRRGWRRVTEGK

± gives the standard deviation of the averaged measurements. The list shows a part of the results.

Compound in this assay: Nc1nc2c(ncn2[C@@H]2O[C@H](COP(=O)(O)OP(=O)(O)OP(=O)(O)O)[C@@H](O)[C@H]2O)c(=O)[nH]1 [guanosine triphosphate]
Description: NP40-soluble protein abundance relative to vehicle (solubility fold change) (ratio); higher = more soluble protein in presence of GTP. As for the experimental part:
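Solubility proteome profiling in Jurkat crude lysate. Lysate was treated with Mg-GTP (0.1-10 mM) for 10 min at room temperature and 3 min at 37 °C, then solubilised with 0.8% NP40 and benzonase, followed by ultracentrifugation. Proteins were quantified by TMT10 LC-MS/MS; the value is the NP40-soluble abundance relative to the NP40-processed vehicle, from 3 independent experiments.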

With RP2 (UniProt O75695), the NP40-soluble protein abundance came out at 1.04 ± 0.013 (concentration: 0.1mM); 1.01 ± 0.011 (concentration: 0.5mM); 0.976 ± 0.015 (concentration: 1mM); 0.958 ± 0.055 (concentration: 2mM); 0.943 ± 0.084 (concentration: 4mM); 0.927 ± 0.051 (concentration: 6mM). Besides, the NP40-soluble protein abundance (concentration: 8mM) was 0.925 ± 0.045 and the NP40-soluble protein abundance (concentration: 10mM) came out at 0.914 ± 0.091.

Turning to GGCT (UniProt O75223), the NP40-soluble protein abundance was 0.938 ± 0.025 (concentration: 0.1mM); 0.98 ± 0.05 (concentration: 0.5mM); 0.898 ± 0.062 (concentration: 1mM); 0.842 ± 0.068 (concentration: 2mM); 0.817 ± 0.084 (concentration: 4mM); 0.872 ± 0.1 (concentration: 6mM). The NP40-soluble protein abundance reads like this: (concentration: 8mM) 0.846 ± 0.078; (concentration: 10mM) 0.829 ± 0.089.

Regarding CLPX (UniProt O76031), the NP40-soluble protein abundance is 1.01 ± 0.039 (concentration: 0.1mM); 1.01 ± 0.035 (concentration: 0.5mM); 0.977 ± 0.038 (concentration: 1mM); 0.964 ± 0.019 (concentration: 2mM); 0.957 ± 0.043 (concentration: 4mM); 0.953 ± 0.03 (concentration: 6mM). Besides, the NP40-soluble protein abundance was 0.944 ± 0.059 (concentration: 8mM) and 0.934 ± 0.02 (concentration: 10mM).

For the target UniProt O75381 and related entries, the NP40-soluble protein abundance came out at 0.943 ± 0.066 (concentration: 0.1mM); 0.844 ± 0.058 (concentration: 0.5mM); 1.1 ± 0.042 (concentration: 1mM); 1.07 ± 0.027 (concentration: 2mM); 1.06 ± 0.029 (concentration: 4mM); 1.04 ± 0.025 (concentration: 6mM). Besides, the NP40-soluble protein abundance (concentration: 8mM) amounted to 0.901 ± 0.086 and the NP40-soluble protein abundance (concentration: 10mM) was 1.15 ± 0.088.

Turning to UniProt O96028 and related entries, the NP40-soluble protein abundance reads like this: (concentration: 0.1mM) 1.04 ± 0.032; (concentration: 0.5mM) 1.06 ± 0.049; (concentration: 1mM) 1.19 ± 0.027; (concentration: 2mM) 1.26 ± 0.027; (concentration: 4mM) 1.44 ± 0.053; (concentration: 6mM) 1.49 ± 0.047. Besides, the NP40-soluble protein abundance by setting is: (concentration: 8mM) 1.59 ± 0.067; (concentration: 10mM) 1.69 ± 0.062.
